About 210 (0.4%) of roughly 52,000 sequences were called active.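 How the source made its calls: active means gene whose silencing raises cell survival under the drug, median off-target-corrected z-score across its silencing RNAs 2 or more; inactive means the rest.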 The list shows a part of the results.
assay: Resistance to Poly (ADP-Ribose) Polymerase inhibitor: Gene Identification via Genome-wide siRNA Screen; conditions: mouse BRCA2 R2336H ES cells, olaparib, CellTiter-Glo viability; hits give high values
From the text: The role of Poly (ADP-Ribose) Polymerase (PARP) proteins in DNA repair has been elegantly utilized for the synthetic lethality-based treatment of BRCA-deficient tumors by PARP inhibitors. PARP inhibitors are now being used for treatment of BRCA-deficient breast and ovarian cancers. […] While several mechanisms of drug resistance have been identified, majority of these tumors develop drug resistance due to unknown causes. To identified novel regulators of chemo-resistance in BRCA2-mutated cells, we performed a genome wide siRNA library screen. We have found ES cells expressing a hypomorphic allele of BRCA2 to be hypersensitive to PAPP inhibitors (such as olaparib). We used ES cells expressing a mutant allele of BRCA2 that has a single amino acid substitution at position 2336 (arginine to histidine, R2336H). The screen was conducted using an Ambion (Thermo) Silencer Mouse Genome siRNA collection. The library targets 17,575 mouse genes with 3 siRNAs per gene. TET2 (E130014J05Rik) was identified as a top candidate.
Transfections were performed in 384 well plates (Corning 3707). Plates were coated with 0.1% gelatin in H2O overnight at ambient temperature. Gelatin solution was aspirated (BioTek EL406) and siRNAs were printed using a Bravo VPrep liquid handler integrated within a BioCel automation platform (Agilent). Cell viability was measured using CellTiter Glo (Promega). For transfections, […] of serum free media containing Lipofectamine RNAiMax […] was added to wells containing siRNA (0.8pmol). Lipid and siRNA were allowed to complex for 45 min at ambient temperature before addition of 1000 cells in DMEM, 30% FBS to yield final transfection mixtures containing 20 nM siRNA in DMEM, 15% FBS. PARPi (olaparib, AZD2281) was added 48 h post-transfection (500 nM) and viability (CellTiter Glo, Promega) was assayed 72 h later on a PerkinElmer Envision 2104 Multilabel plate reader. Ambion Silencer Select Negative Control #2 was incorporated on all screening plates (16 wells) and the median negative control value on each plate was used for normalization. An siRNA targeting Trp53 was used as a positive control. This control yielded a median protective effect of ~1.9 fold versus negative control throughout the screen. The median absolute deviation (MAD) based z-score was calculated for each siRNA. Genes were then ranked by taking the median value for all siRNAs tested against a given gene. Scores were also adjusted for seed-based off-target effects to help deprioritize likely false positives.

| Sequence | z-score |
| --- | --- |
| GGCACUUUGUUCUAGCAGCTT against Pcdhb21 | inactive: 0.341 |
| GGUAAUAUUUCGUGCUUUATT against Lamb1-1 | inactive: 0.769 |
| CCUACUGCAUUAAAAAACUTT against Lactb2 | inactive: 2.1 |
| GGAGACUGGAGCUUCAUCUTT against Edg4 | inactive: 0.0141 |
| GCACAGUCACUAGCUGAAUTT against 4930432K09Rik | inactive: 1.65 |
| GGGAUCCACAAAUAAAAGATT against Klk4 | inactive: 2.73 |
| GGACUGAGAAAAUCUUCCGTT against Hpca | inactive: 0.605 |
| GGUGUGGAACGACAAACAGTT against 4732472I07Rik | inactive: 1.73 |
| GGAAUGUAACUGAAAGACUTT against Myo1c | inactive: -0.869 |
| GGUUGACUUAAAUGUCAGGTT against Rxrb | inactive: 0.435 |
| GCAUCAUCUGAUCUGCACGTT against Nkx2-9 | inactive: 2.25 |
| GGAACUUAACUUACACAUGTT against Nr2f1 | inactive: -1.19 |
| GCUCCUCUCAGGUGUACGATT against BC028440 | inactive: 0.657 |
| GGUUCCUAUACCCAACGGUTT against Mrgpra7 | inactive: 0.792 |
| GGUGCUAGUGGUGACCAUGTT against Pign | inactive: 2.31 |
| CGAUCGAUGUUAAAUGUAGTT against Nppa | inactive: -2.26 |
| GCUUUGCGCUGCCCUUAUATT against BC024561 | inactive: -0.785 |
| CCAGCAAAGACAAGUCUCCTT against Hoxb9 | inactive: 0.963 |
| GGUGUUCUUACCUUUUGACTT against Il9r | inactive: 0.404 |
| GGCCUUUCACAAAUUAGCCTT against Dnajb9 | inactive: 0.103 |
| GGUGCUGGACGAAAUUGUATT against Arhgdig | inactive: -0.106 |
| GGAGAAAGAGAUCACCAUCTT against Slc8a2 | inactive: 0.606 |
| GGCUAAUGCUCCUUCAUGUTT against Myo18a | inactive: -2.42 |
| GGAAUAUACCCUGAAACAUTT against 4921509E07Rik | inactive: -0.406 |
| GGAGAAUCAGUAUUCCAUATT against 9330161C17Rik | inactive: 0.511 |
| GGAUAUCUCGGGUUGAAUUTT against Stk6 | inactive: -1.75 |

| Sequence | z-score |
| --- | --- |
| GGCUACCAAGCUCCUCUAUTT against Zfyve21 | inactive: -1.82 |
| GGUCCUCAUCGAAUUACACTT against Trip10 | inactive: -0.458 |
| CCUCAUUCAGAGUAUAUAGTT against E030013G06Rik | inactive: -0.215 |
| GGUAGAGCGCAGAAUUAGATT against 3300001P08Rik | inactive: -1.38 |
| GGACCUCCAGAGCAUACUGTT against Plscr2 | inactive: 0.00576 |
| GGGCCACUGUGUAAUUCAATT against Pcdhgc5 | inactive: 0.789 |
| GGACCUUUGUAUUUCAUUUTT against Dorz1 | inactive: -0.579 |
| GGAUUCUGAAUAUUUGCCATT against Glipr2 | inactive: -0.313 |
| GGGAGCAACCGGACAAUAUTT against Spa17 | inactive: 0.524 |
| CCACAAAGGAAUUCAUGAGTT against Dhx16 | inactive: -0.191 |
| GGCUGACAUAACAUUAAAATT against Bves | inactive: 0.551 |
| GGUCAAGAGUGCCCUAAAATT against Olfr398 | inactive: -1.68 |
| CCACACCAGAGGUCUUUGATT against Usmg4 | inactive: -3.17 |
| GCGUGUUAGGAAAAACUCUTT against BC027073 | inactive: -0.864 |
| GGCAUUUUGAGACUCUACUTT against Crygb | inactive: -0.63 |
| CGGCAGAUUGCUGCUUUGATT against V2r12 | inactive: -2.17 |
| CGGGUAUCAUCGAUUAUGGTT against Tnfaip6 | inactive: 2.2 |
| GGGAUUCCACGGAUACUGUTT against Rnase13 | inactive: 0.81 |
| GGAAUUGAUCACUAACCCUTT against Cd97 | inactive: -1.2 |
| GGUAAGAACUGAAAUGCAUTT against Irf4 | inactive: 0.889 |
| ACUCAUUACACCCUUACCUTT against LOC381680 | inactive: 0.131 |
| GGUAAAGCUGAAGACAAGGTT against Rps2 | inactive: -3.26 |
| GGAACGAGAAGAAGAAGAATT against Acin1 | inactive: -1.32 |
| GGACCUGCCCAAAUCUGAUTT against Fbxo40 | inactive: -0.385 |
| GGUUUACGCAGACUCAAGUTT against Trim14 | inactive: -0.117 |
| GGUAUGCCGCUAUCUGUCATT against Olfr99 | inactive: -2.96 |

| Sequence | z-score |
| --- | --- |
| GGGAAUGCAGCUAGGAAGATT against Paics | inactive: -3.19 |
| CCAGUCACAUGAUCUUCGATT against Car10 | inactive: 0.744 |
| CCUCUACAUCCAGGAAUGATT against Map4k1 | inactive: -1.23 |
| CCAUAUGGUCAUUAUACCUTT against 2810460C24Rik | inactive: 0.324 |
| GCCUCGAAUGCUAGACUUCTT against Faf1 | inactive: -0.722 |
| GGCCUAUCUUGUUUAUUUGTT against Tgtp | inactive: 0.705 |
| GCCGGAUAACAUCAGACACTT against 0610042C05Rik | inactive: 0.392 |
| GGAAAAAUGUAAUAAGCCATT against 2610318G18Rik | inactive: -0.0781 |
| GGACUUGCUAGAUACGAUCTT against Edaradd | inactive: 0.0515 |
| CCAUGCUCUAUCAAUGUUCTT against Sprr3 | inactive: 0.853 |
| GGGCAAGUACUUCUCUAGCTT against Cdsn | inactive: 1.32 |
| CCUCCAUUGAUACUCAAGUTT against Pycr1 | inactive: 0.708 |
| GGAAACUGGUCCCUAUCAATT against Sp2 | inactive: 0.652 |
| GCAAGUAACAAUCGCUUAUTT against 1810073M12Rik | inactive: 0.223 |
| GCAUCAACAUCCAUCUAUCTT against Kctd8 | inactive: -0.0646 |
| GGCUCAGACCUGGAUACAUTT against Oas1e | inactive: -0.463 |
| GUUCACACACGAAUUUGACTT against H2-Oa | inactive: 0.232 |
| GCACGUGGAUCCUAACAAGTT against 4932702D22Rik | inactive: -0.0557 |
| CCUAAAACCUUCAAGUCUUTT against 2700017M01Rik | inactive: 1.06 |
| CCUUCUGCGGCUCAGUCUATT against BC024582 | inactive: -1.93 |
| CCAAAUCUGAAAUGUGCGGTT against Mare | inactive: 0.0524 |
| GGUCUCUUGACUUCAGUACTT against Shc3 | inactive: 0.195 |
| CGAGGAUGCUUUUUAAAAATT against 1110054O05Rik | inactive: 0.907 |
| GGAAGAGGAGUCCUACUCUTT against Pla2g12b | inactive: 0.406 |
| CGGGAGAAAAUUUUAAAGGTT against Qscn6l1 | inactive: 1.79 |
| CCAGUAUUAUCUAACAUCGTT against Pdk4 | inactive: 1.14 |

| Sequence | z-score |
| --- | --- |
| GGCAAUGGCUUCGUAGUAUTT against Ltb4r2 | inactive: -1.21 |
| GGUCAUGGCUACUUCAUCCTT against A930013K19 | inactive: 0.982 |
| GGAUGACAAUCAACAUUCCTT against B430201G11Rik | inactive: 0.302 |
| GGAGAAAGCAAGGAUAAUCTT against Rgs20 | inactive: 0.584 |
| CCACAGUACGCUGAAAUCCTT against Morf4l1 | inactive: 0.394 |
| GGCAUACAAGAAGUGUCUATT against Snta1 | inactive: 0.389 |
| GGAAACCUGAUUAUCAUCATT against Olfr791 | inactive: 0.431 |
| GCACUUAAUACUUUAUGUGTT against Iapp | inactive: -1.41 |
| GGCCUAAUUUCCUCUAAUATT against Padi1 | inactive: 1.03 |
| GGUAAUGAAUGGACAAUGATT against 9130401M01Rik | inactive: -0.0912 |
| GGCAGGGUAGCCAAACAAATT against G630055P03Rik | inactive: 1.86 |
| GGAGCAUUCACCUGUCUGUTT against Gdf9 | inactive: 0.189 |
| GCGAUUGAUGAAUUUCGACTT against Atp9b | inactive: 1.45 |
| ACCUCCAGUCGCAUAGAAGTT against LOC435366 | inactive: 0.506 |
| GGUGGUGAACUGUUUGACCTT against Pnck | inactive: 0.354 |
| GGCAGGCAGAAGGCUUUUUTT against Olfr228 | inactive: -0.943 |
| GCAGGUUCAUACGAUCCAGTT against Plekha3 | inactive: -1.75 |
| CCUCCUGUGUUACUUGCGUTT against Bsf3 | inactive: -0.472 |
| GGAAAGCAUGCAGUUCAUATT against Cyp4f13 | inactive: 0.0612 |
| GGUUGAUGAAAUUAGAGAGTT against A930014I12Rik | inactive: 0.564 |
| GGAAGUGAAGACCUUCUUCTT against Siat4c | inactive: 0.327 |
| GGGAAUUGCUUUUAAAUGATT against Cnot6l | inactive: 0.636 |
| GUUAUCAUCACCAUGUUGGTT against Atp6v0e | inactive: 0.866 |
| GGAGGUCCCUUCUUCAGCUTT against D12Ertd748e | inactive: -0.693 |
| GGUUGCUCACUCAUUUAACTT against Pa2g4 | inactive: 0.914 |
| GGCUGUGUUUUUGAACCUUTT against Chrna3 | inactive: 2.5 |

A portion from the list above, as a working copy:

| Sequence | z-score |
| --- | --- |
| GGUAAUGAAUGGACAAUGATT against 9130401M01Rik | inactive: -0.0912 |
| GGCAGGGUAGCCAAACAAATT against G630055P03Rik | inactive: 1.86 |
| GGAGCAUUCACCUGUCUGUTT against Gdf9 | inactive: 0.189 |
| GCGAUUGAUGAAUUUCGACTT against Atp9b | inactive: 1.45 |

Reference: PubChem BioAssay AID1347423 (Functional Genomics Laboratory (NCATS/FGL), 2020)
